# Test results as given in paper PMC12561453, “Synthesis and Structure–Activity Relationship Study of 2-(amino)quinazolin-4(3H)-one Derivatives as Potential Inhibitors of Methicillin-Resistant Staphylococcus aureus (MRSA)” (Antibiotics, 2025).
# What was measured:
# [1] = tested on: S. aureus USA300 JE2 expressing GFP in H460 cells; assay type: cell-based, Staphylococcus aureus; conditions: Table 2, H460 infection model; text: IC50 HepG2/MIC50 ex vivo
# Description: Staphylococcus aureus, including MRSA, can invade host cells and replicate intracellularly, which complicates treatment with current therapies. To evaluate the intracellular antibacterial activities of the selected compounds, the fifteen compounds tested for cytotoxicity were further assessed using a cell infection model based on H460 human lung epithelial cells, which mimic MRSA-mediated pneumonia. H460 cells were infected with the USA300 JE2 expressing green fluorescent protein (GFP) and subsequently treated with the compounds in a dose–response manner, along with three reference antibiotics: vancomycin, linezolid, and erythromycin. After 24 h of incubation, bacterial loads were quantified by measuring GFP fluorescence in each well. MIC50 values determined in the H460 infection model (MIC50 ex vivo) were generally higher than those obtained from the in vitro tests, likely due to either limited compound penetration into host cells or reduced antibacterial effect of the compounds against intracellular bacteria (Figure 3, Table 2). […] These findings underscore the potential of compound 6y as a promising lead for further development as a novel antistaphylococcal agent.
# To see the ex vivo antimicrobial activity of the compound, the human lung carcinoma cell line H460 (ATCC #HTB-177) was used. The H460 cells were cultured in RPMI 1640 medium with 10% fetal bovine serum (FBS) and in a 96-well microplate at 37 °C and 5% CO2. Cell lines were cultured for 2 days, until they reached full confluence in the well. S. aureus (USA300-containing and pCM29-encoding GFP) was cultured in CAMHB with 10 µg/mL of chloramphenicol, and bacterial cells were harvested. After washing the bacterial cells with phosphate-buffered saline (PBS) and suspending them in RPMI, infected H460 cells with S. aureus (1 × 10^7 CFU) and incubated them for 2.5 h. Samples were washed three times with PBS. Then, cells were treated with gentamicin (50 µg/mL of gentamicin in RPMI) and incubated for 1 h. Samples were washed with PBS, RPMI-containing diluted compounds were added, and then they were incubated at 37 °C in 5% CO2 for 24 h. To detect the Green fluorescent protein (GFP) signal, an Ensight multimode plate reader and Opera Phenix Plus (Revvity, Waltham, MA, USA) were used.
# Ex vivo infection model images were generated using the Opera Phenix Plus high-content imaging system. Images were obtained by a confocal microscope with a 20× water objective lens. To detect the bacteria fluorescence signal (GFP), the Alexa 488 channel (488 nm laser/500–550 filter, Thermo Fisher Scientific, Waltham, MA, USA) was used, and the brightfield channel was used for H460 cell images.
# Figure 3 Antibacterial activities of 2-(amino)quinazolin-4(3H)-one derivatives in the H460 infection model. H460 cells were infected with S. aureus USA300 JE strain expressing GFP, followed by treatment with serial dilutions of 2-(amino)quinazolin-4(3H)-one derivatives. After incubation at 37 °C for 24 h with 5% CO2, fluorescence signals of the bacteria were detected at 488 nm/510 nm using a multilabel plate reader.
# HepG2 cells = test: In vitro cytotoxicity, HepG2 viability (resazurin); assay type: cell-based, human; conditions: ratio of IC50 in HepG2 cells to MIC50 against JE2
# Description: The in vitro cytotoxicity of the compounds was evaluated by measuring the viability of HepG2 cells, a human liver cell line, following treatment in a dose–response manner, as previously described. […] The efficacy window was calculated as the ratio of IC50 in HepG2 cells to MIC50 against JE2.
# To test cytotoxicity with compounds, the human liver cell line HepG2 (ATCC #HB-8065) was used for the assay. HepG2 was cultured in DMEM with 10% fetal bovine serum (FBS) in a 96-well microplate at 37 °C and 5% CO2. HepG2 cells were seeded at a final density of 5 × 10^4 cells/well, and DMEM-containing diluted compounds were added and incubated on the plates at 37 °C in 5% CO2 for 24 h. After that, resazurin (final concentration, 0.1 mg/mL) was added to each well and incubated on the plates at 37 °C in 5% CO2 for 2 h. To detect the fluorescence at 530 nm excitation and 590 nm emission, an Ensight multimode plate reader was used (Revvity, Waltham, MA, USA).
Structure (SMILES),Efficacy Window (IC50 HepG2/MIC50 USA300) [1],Efficacy Window (IC50 HepG2/MIC50 USA300) (HepG2 cells)
"O=c1[nH]c(Nc2cc(Cl)cc(Cl)c2)nc2cc([N+](=O)[O-])ccc12 [6e, 2-((3,5-Dichlorophenyl)amino)-7-nitroquinazolin-4(3H)-one]",0.1,5.9
"O=c1[nH]c(Nc2cc(Cl)cc(Cl)c2)nc2c(Br)cc(Br)cc12 [6f, 6,8-Dibromo-2-((3,5-dichlorophenyl)amino)quinazolin-4(3H)-one]",1.1,8.3
"O=c1[nH]c(Nc2cc(Cl)cc(Cl)c2)nc2cc(F)c(F)cc12 [6g, 2-((3,5-Dichlorophenyl)amino)-6,7-difluoroquinazolin-4(3H)-one]",0.5,8.9
"O=c1[nH]c(Nc2cc(Cl)cc(Cl)c2)nc2cc(Cl)c(Cl)cc12 [6h, 6,7-Dichloro-2-((3,5-dichlorophenyl)amino)quinazolin-4(3H)-one]",,30.3
"O=c1[nH]c(Nc2cc(Cl)cc(Cl)c2)nc2c(Cl)cc(Cl)cc12 [6i, 6,8-Dichloro-2-((3,5-dichlorophenyl)amino)quinazolin-4(3H)-one]",1.5,21.8
"O=c1[nH]c(Nc2cc(Cl)cc(Cl)c2)nc2ccccc12 [6j, 2-((3,5-Dichlorophenyl)amino)quinazolin-4(3H)-one]",0.8,15.7
"O=c1[nH]c(Nc2cc(Cl)cc(Cl)c2)nc2cc(C(F)(F)F)ccc12 [6k, 2-((3,5-Dichlorophenyl)amino)-7-(trifluoromethyl)quinazolin-4(3H)-one]",1.7,39.0
"O=c1[nH]c(Nc2cc(Cl)cc(Cl)c2)nc2cc(Cl)ccc12 [6l, 7-Chloro-2-((3,5-dichlorophenyl)amino)quinazolin-4(3H)-one]",,101.3
"O=c1[nH]c(Nc2cccc(F)c2)nc2cc(Cl)ccc12 [6n, 7-Chloro-2-((3-fluorophenyl)amino)quinazolin-4(3H)-one]",0.4,6.6
"O=c1[nH]c(Nc2cc(F)cc(F)c2)nc2cc(Cl)ccc12 [6q, 7-Chloro-2-((3,5-difluorophenyl)amino)quinazolin-4(3H)-one]",,39.2
"O=c1[nH]c(Nc2cccc(C(F)(F)F)c2)nc2cc(Cl)ccc12 [6r, 7-Chloro-2-((3-(trifluoromethyl)phenyl)amino)quinazolin-4(3H)-one]",0.4,6.9
"O=c1[nH]c(Nc2cccc(Cl)c2)nc2cc(Cl)ccc12 [6u, 7-Chloro-2-((3-chlorophenyl)amino)quinazolin-4(3H)-one]",0.2,4.0
"O=c1[nH]c(Nc2ccc(Cl)cc2)nc2cc(Cl)ccc12 [6v, 7-Chloro-2-((4-chlorophenyl)amino)quinazolin-4(3H)-one]",1.1,15.0
"O=c1[nH]c(NCc2ccc(Cl)cc2Cl)nc2cc(Cl)ccc12 [6x, 7-Chloro-2-((2,4-dichlorobenzyl)amino)quinazolin-4(3H)-one]",0.9,8.8
"O=c1[nH]c(NCc2ccc(F)c(F)c2)nc2cc(Cl)ccc12 [6y, 7-Chloro-2-((3,4-difluorobenzyl)amino)quinazolin-4(3H)-one]",,~ 885 and 885.2

# Several values for one entry are separate records, joined by “and”; a condition that tells them apart may be missing. Equal values may be shown once.
